The record followed here is US20260227398A1, “CD62L (L-SELECTIN) APTAMER AND ITS APPLICATION FOR T CELL ISOLATION” (University of Washington, published 2026).

In data set [1] the target is T1, L-selectin (CD62L) on J.RT3-T3.5 cells (Homo sapiens) (UniProt P14151).
T1 sequence: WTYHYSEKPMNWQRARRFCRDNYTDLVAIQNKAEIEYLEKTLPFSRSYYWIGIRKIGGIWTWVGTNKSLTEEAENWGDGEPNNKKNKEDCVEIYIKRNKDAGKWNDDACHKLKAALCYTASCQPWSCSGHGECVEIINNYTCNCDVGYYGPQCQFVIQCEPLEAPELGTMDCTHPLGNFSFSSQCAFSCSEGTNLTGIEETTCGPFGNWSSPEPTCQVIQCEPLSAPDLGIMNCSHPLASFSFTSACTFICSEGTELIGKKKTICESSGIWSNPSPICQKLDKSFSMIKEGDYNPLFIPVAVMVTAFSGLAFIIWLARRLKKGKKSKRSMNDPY
Put plainly: flow cytometry. Conditions: protein on the cell surface, protein details: endogenous, J.RT3-T3.5 human T-ALL line, single-stranded DNA. In general terms: In flow cytometry, cells or beads pass a laser one at a time.

Data set [2] deals with L-selectin (CD62L) on primary CD4+ T cells (Homo sapiens) (UniProt P14151). Put plainly: flow cytometry. Conditions: random aptamer control did not bind CD4+ T cells; protein on the cell surface; protein details: endogenous, primary CD4+ T cells; single-stranded DNA.
Data set [3] deals with L-selectin (CD62L) in J.RT3-T3.5 membrane protein extract (Homo sapiens) (UniProt P14151). The data set is described as follows: pull-down. To be noted: biotinylated aptamer pulldown, CD62L identified by LC-MS/MS, not in biotin-saturated bead control; protein in an extract; single-stranded DNA.

Where cells or extracts were used, other partners may take part. For some assays here: Negatives hold for the conditions tested. For some assays here: Construct, isoform or probe ends are uncertain for at least one entry.

For “TTTTTTTTTTTTTTTTAATTTAGTCAAGGCGATAGACGAAAAACATTGTTTTCCTGGAAGGCCCAGAATCTG [CD62LApt.52.s20]”, in data set [1] (affinity minimally affected by spacer, label: 5' biotin, variant of CD62LApt.52), the binding result is “binds”.

Turning to “CCAGAGTGACGCAGCATAGTCAAGGCGATAGACGAAAAACATTGTTTTCCTGGAAGGCCCAGAATCTGTGG [CD62LApt.71]”, in data set [1] (appears to retain binding, label: 5' fluorescein, variant of CD62LApt.88 (A1, L-SA.88)), the binding result is “binds”. In the case of “ATCCAGAGTGACGCAGCAAATTCCAAACTCGAGTAAGCGTAGAGCCTCTCATCGCCTCAATAATGGACACGGTGGCTTAGT [Random aptamer (RAN)]”, in data set [2], the binding result is reported as “no binding”. Regarding “ATCCAGAGTGACGCAGCATAGTCAAGGCGATAGACGAAAAACATTGTTTTCCTGGAAGGCCCAGAATCTGTGGACACGGTGGCTTAGT [CD62LApt.88 (A1, L-SA.88)]”, the binding result in data set [3] is given as “binds”. With “CTGGGCGATAGACGAAAAACATTGTTTTCCTGGAAGGCCCAG [CD62LApt.42]”, in data set [1] (high binding not observed for the 42-mer, label: 5' fluorescein, variant of CD62LApt.88 (A1, L-SA.88)), the binding result was “no binding”.
